These are yes or no findings as the source states them, for the method shown. Some binding calls cover weakened binding; strength is not graded here. Where a sequence is shown, tags or fusion partners need not be part of it.
Assays:
[1] = target: WW-domain containing protein 1 (WWP1), full-length, GAL4 fusion (human) (UniProt Q9H0M0); test: two-hybrid; serial dilution growth assay: co-transformed haploid AH109, dilutions 10^0 to 10^-4 spotted on DDO and QDO plates, 30°C for 3-4 days; HIS3 and ADE2 reporters
[2] = target: WW-domain containing protein 1 (WWP1), full-length, GAL4 fusion (human) (UniProt Q9H0M0); test: two-hybrid; quantitative β-galactosidase assay (lacZ reporter) of co-transformed haploid AH109; permeabilised cells in Z-buffer, X-gal staining solution in 96-well plate, read with ImageJ at t90 or t120

binding [1]: binds
binding [2]: binds
B1: WW domain binding protein 2 (WBP2), full-length, GAL4 fusion (protein, UniProt Q969T9 1-261)
chain: MALNKNHSEGGGVIVNNTESILMSYDHVELTFNDMKNVPEAFKGTKKGTVYLTPYRVIFLSKGKDAMQSFMMPFYLMKDCEIKQPVFGANYIKGTVKAEAGGGWEGSASYKLTFTAGGAIEFGQRMLQVASQASRGEVPSGAYGYSYMPSGAYVYPPPVANGMYPCPPGYPYPPPPPEFYPGPPMMDGAMGYVQPPPPPYPGPMEPPVSGPDVPSTPAAEAKAAEAAASAYYNPGNPHNVYMPTSQPPPPPYYPPEDKKTQ

From article PMC13133773
